Read-outs that look alike come from different tables or passages of the source. Results are given in words; binding and its absence hold for the method and conditions named. For some assays here: Binding seen in cells or lysates may run through a third protein. Some results given as binding are weak or reduced against the parent protein; the word gives no strength. For some assays here: Sequences can lack the tags named with a protein.
Key:
[1] = target: HCLS1-associated protein X-1 (HAX1), yeast two-hybrid baits and prey clones (human) (UniProt O00165); experiment: two-hybrid; automated high-throughput yeast two-hybrid system (Myrexis); 27 HAX1 baits screened, HAX1 also prey from 21 baits; nine libraries (brain, substantia nigra, hypothalamus, hippocampus, spleen, liver, colon, testis, breast cancer/prostate cancer)
tagged HAX1 (whole HAX1) [2] = target: tagged HAX1 (whole HAX1) (UniProt O00165); experiment: co-IP; HeLa cells co-transfected with tagged HAX1 and the tagged partner, lysed 24 h later in NP-40 buffer (10 mM Tris/Cl pH 7.5, 150 mM NaCl, 0.5 mM EDTA, 0.5% Nonidet P40); anti-FLAG M2 beads, anti-c-Myc magnetic beads or GFP-trap; Western blot
[3] = target: HCLS1-associated protein X-1 (HAX1), yeast two-hybrid baits and prey clones (human) (UniProt O00165); experiment: two-hybrid; automated high-throughput yeast two-hybrid system (Myrexis); 27 HAX1 baits screened, HAX1 also prey from 21 baits; nine libraries (brain, substantia nigra, hypothalamus, hippocampus, spleen, liver, colon, testis, breast cancer/prostate cancer); remark: listed apart in the source
tagged HAX1 (whole HAX1) [4] = target: tagged HAX1 (whole HAX1) (UniProt O00165); experiment: co-IP; HeLa cells co-transfected with tagged HAX1 and the tagged partner, lysed 24 h later in NP-40 buffer (10 mM Tris/Cl pH 7.5, 150 mM NaCl, 0.5 mM EDTA, 0.5% Nonidet P40); anti-FLAG M2 beads, anti-c-Myc magnetic beads or GFP-trap; Western blot; remark: listed apart in the source

Amino acid sequences for entries named in this document (tags omitted).
UniProt Q12955: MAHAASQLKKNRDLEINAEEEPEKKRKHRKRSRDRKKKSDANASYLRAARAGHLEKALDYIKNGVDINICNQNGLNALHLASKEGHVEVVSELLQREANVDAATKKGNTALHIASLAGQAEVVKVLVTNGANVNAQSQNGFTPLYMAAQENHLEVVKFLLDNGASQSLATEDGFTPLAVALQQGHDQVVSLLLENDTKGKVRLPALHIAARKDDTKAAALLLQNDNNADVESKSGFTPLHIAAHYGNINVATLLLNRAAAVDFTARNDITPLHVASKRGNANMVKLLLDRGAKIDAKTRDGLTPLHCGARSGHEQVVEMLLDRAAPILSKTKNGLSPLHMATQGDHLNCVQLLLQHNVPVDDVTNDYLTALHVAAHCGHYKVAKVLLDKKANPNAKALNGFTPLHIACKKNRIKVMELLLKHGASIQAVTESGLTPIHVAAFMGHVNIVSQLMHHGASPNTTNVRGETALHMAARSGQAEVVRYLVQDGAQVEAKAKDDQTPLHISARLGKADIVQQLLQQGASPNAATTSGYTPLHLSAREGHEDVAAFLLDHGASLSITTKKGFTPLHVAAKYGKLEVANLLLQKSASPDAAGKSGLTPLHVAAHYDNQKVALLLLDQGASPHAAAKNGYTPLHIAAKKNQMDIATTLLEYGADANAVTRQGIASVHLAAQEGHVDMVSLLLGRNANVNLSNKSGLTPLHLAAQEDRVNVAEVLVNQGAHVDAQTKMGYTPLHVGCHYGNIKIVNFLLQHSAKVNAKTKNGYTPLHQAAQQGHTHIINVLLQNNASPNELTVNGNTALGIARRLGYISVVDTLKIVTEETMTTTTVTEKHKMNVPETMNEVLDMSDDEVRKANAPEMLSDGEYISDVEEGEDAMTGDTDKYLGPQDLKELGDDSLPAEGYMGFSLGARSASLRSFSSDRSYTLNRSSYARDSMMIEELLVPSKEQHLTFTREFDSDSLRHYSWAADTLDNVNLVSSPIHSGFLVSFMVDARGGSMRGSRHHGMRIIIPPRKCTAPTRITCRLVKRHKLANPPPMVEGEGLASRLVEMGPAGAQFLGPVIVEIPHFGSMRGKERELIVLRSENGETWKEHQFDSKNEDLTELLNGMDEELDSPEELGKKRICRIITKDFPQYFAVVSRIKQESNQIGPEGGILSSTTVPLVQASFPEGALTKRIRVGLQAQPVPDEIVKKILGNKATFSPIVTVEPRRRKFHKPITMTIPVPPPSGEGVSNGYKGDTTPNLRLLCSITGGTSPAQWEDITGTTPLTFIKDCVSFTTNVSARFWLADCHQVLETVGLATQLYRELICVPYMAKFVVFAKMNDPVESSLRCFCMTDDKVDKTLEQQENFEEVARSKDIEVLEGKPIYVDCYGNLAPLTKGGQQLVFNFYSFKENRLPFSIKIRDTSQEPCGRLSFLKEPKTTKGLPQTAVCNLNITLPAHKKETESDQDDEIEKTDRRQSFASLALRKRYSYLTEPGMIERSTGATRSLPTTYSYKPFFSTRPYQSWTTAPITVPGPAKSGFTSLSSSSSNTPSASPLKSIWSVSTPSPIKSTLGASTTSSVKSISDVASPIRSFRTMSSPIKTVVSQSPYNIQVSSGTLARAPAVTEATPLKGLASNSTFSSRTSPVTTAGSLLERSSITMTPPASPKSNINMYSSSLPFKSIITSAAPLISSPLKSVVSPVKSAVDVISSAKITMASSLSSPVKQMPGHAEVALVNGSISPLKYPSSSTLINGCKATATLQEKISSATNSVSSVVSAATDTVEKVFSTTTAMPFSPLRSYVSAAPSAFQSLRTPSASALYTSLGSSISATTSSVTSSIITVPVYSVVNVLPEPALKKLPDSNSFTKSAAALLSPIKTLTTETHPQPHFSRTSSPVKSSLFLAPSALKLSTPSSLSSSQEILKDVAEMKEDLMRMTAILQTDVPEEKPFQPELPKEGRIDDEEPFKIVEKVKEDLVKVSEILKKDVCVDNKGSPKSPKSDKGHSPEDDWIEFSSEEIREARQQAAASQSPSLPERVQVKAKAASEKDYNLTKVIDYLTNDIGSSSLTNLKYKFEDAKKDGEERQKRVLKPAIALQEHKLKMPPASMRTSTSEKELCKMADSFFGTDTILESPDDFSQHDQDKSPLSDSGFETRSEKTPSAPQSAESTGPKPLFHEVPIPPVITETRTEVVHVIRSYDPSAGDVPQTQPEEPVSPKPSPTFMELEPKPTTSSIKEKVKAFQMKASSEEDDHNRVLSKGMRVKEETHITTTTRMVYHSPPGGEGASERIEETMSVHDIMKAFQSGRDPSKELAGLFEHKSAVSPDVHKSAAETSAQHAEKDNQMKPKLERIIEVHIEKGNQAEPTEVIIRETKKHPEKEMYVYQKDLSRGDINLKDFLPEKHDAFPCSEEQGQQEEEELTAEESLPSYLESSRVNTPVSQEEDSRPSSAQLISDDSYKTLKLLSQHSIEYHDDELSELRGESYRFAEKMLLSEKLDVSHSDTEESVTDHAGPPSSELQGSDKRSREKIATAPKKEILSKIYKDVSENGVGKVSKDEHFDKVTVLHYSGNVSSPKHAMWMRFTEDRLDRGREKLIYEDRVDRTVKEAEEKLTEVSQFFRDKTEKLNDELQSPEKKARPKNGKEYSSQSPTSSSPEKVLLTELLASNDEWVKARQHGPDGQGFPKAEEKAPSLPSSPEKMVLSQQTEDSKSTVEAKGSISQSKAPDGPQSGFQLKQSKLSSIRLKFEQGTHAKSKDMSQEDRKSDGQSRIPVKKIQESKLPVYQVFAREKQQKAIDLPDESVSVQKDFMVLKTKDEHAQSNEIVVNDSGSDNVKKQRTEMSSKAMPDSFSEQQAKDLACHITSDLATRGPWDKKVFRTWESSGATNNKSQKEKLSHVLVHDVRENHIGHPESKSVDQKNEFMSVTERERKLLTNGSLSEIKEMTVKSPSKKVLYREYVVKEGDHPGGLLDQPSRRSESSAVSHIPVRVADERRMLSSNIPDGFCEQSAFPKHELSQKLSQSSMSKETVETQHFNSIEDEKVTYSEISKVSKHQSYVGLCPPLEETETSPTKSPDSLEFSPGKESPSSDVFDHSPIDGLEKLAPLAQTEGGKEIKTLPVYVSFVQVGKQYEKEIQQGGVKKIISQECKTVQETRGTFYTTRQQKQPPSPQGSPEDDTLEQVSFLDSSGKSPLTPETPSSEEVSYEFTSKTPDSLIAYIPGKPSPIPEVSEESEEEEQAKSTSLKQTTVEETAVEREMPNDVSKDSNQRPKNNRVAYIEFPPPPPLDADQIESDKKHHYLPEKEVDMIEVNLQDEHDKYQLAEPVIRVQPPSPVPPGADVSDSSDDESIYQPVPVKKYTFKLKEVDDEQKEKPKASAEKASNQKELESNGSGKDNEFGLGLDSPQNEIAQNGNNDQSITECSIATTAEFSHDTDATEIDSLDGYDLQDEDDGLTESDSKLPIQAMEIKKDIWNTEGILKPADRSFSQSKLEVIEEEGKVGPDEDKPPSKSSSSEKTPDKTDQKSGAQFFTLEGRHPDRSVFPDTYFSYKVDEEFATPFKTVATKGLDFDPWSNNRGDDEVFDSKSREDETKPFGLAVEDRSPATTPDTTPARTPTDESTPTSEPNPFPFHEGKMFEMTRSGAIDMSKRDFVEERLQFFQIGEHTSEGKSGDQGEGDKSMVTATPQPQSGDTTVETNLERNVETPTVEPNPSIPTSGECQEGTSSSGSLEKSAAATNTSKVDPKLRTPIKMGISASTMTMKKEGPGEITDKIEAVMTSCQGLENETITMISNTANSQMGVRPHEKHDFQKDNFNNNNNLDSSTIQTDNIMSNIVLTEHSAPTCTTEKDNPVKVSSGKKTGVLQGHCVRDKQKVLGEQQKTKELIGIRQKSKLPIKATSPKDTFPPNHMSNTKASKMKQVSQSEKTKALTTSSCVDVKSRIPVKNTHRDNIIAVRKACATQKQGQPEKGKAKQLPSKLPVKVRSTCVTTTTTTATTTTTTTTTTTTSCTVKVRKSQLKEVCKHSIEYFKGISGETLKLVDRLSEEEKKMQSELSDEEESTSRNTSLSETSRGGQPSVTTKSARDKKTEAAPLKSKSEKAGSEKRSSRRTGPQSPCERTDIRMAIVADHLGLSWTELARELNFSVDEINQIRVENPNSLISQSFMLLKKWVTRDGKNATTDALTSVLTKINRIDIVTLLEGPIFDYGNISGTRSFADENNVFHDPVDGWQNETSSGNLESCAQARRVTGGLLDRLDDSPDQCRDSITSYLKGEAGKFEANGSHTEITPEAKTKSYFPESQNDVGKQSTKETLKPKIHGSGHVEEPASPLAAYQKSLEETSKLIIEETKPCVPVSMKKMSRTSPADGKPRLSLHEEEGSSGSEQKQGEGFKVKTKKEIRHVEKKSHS
UniProt Q15327: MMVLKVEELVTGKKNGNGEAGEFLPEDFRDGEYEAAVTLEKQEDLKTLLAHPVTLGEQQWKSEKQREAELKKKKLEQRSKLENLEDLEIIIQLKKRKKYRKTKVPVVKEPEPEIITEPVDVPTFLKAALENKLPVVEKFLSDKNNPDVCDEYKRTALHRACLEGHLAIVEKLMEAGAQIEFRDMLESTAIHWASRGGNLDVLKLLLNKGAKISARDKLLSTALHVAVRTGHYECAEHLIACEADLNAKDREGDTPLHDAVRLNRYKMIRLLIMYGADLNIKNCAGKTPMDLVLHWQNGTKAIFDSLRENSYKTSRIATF
UniProt O00571: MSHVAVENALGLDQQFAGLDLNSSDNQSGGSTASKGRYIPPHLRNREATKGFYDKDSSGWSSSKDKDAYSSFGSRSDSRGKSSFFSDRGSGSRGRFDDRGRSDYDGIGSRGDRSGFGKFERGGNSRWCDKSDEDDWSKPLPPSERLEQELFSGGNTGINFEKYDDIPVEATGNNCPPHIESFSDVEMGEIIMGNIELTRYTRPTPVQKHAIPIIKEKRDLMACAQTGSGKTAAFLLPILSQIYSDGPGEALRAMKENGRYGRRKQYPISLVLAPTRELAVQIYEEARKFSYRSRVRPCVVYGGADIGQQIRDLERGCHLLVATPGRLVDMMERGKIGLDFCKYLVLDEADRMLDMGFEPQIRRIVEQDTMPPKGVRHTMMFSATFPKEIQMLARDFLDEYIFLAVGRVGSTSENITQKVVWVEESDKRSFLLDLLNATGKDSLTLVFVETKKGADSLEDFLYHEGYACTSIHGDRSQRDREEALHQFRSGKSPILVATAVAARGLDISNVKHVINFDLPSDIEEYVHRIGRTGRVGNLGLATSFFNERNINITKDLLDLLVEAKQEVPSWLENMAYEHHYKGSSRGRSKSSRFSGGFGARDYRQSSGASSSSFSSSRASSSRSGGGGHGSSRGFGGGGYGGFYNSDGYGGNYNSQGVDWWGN
UniProt O43491: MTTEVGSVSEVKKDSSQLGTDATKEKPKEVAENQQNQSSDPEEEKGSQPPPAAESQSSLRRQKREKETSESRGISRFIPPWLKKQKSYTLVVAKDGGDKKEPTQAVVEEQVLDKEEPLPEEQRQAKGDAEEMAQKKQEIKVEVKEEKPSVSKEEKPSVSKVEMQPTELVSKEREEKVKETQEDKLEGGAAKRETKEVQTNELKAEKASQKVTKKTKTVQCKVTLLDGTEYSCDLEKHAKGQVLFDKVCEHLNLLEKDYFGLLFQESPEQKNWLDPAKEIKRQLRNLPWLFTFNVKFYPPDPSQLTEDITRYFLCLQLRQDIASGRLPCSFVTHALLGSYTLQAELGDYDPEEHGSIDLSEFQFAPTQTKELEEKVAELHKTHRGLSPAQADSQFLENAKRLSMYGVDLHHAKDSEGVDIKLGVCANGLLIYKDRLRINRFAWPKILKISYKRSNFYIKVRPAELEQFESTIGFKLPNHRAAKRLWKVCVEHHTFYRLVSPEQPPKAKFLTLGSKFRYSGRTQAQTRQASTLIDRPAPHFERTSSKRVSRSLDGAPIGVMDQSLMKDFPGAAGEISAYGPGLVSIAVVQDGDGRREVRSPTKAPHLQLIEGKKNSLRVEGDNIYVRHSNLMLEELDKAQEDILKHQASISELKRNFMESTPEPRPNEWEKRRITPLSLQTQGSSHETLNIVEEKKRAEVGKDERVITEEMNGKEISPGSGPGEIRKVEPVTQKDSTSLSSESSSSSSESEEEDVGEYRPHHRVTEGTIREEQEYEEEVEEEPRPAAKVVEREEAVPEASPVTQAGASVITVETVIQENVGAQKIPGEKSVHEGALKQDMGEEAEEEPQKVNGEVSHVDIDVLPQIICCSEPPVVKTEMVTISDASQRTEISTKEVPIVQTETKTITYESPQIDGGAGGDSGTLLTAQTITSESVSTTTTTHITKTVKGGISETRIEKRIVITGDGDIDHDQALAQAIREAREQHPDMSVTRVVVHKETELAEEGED

Q: “ANK2, two-hybrid fusion (from UniProt Q01484 1-3957)” was tested. Which binding [1] did it give?
A: binds

Q: With “ANK3, two-hybrid fusion (from UniProt Q12955 1-4377)” as the molecule, how does the binding [1] read?
A: binds

Q: How did the binding [1] turn out when “ANKRD1, two-hybrid fusion (from UniProt Q15327 1-319)” was run?
A: binds

Q: For “DAAM1, two-hybrid fusion (from UniProt Q9Y4D1 1-1078)”, which binding [1] is on record?
A: binds

Q: How did the binding (tagged HAX1 (whole HAX1) [2]) turn out when “DDX3X RNA helicase, FLAG-tagged construct (from UniProt O00571 1-662)” was run?
A: binds

Q: “EPB41L2, two-hybrid fusion (from UniProt O43491 1-1005)” was tested. Which binding [1] did it give?
A: binds

Q: With “sequestosome (SQSTM1), GFP construct (from UniProt Q13501 1-440)” as the molecule, how does the binding (tagged HAX1 (whole HAX1) [2]) read?
A: binds

B1: RAI14, two-hybrid fusion (protein, UniProt Q9P0K7 1-980)
chain: MKSLKAKFRKSDTNEWNKNDDRLLQAVENGDAEKVASLLGKKGASATKHDSEGKTAFHLAAAKGHVECLRVMITHGVDVTAQDTTGHSALHLAAKNSHHECIRKLLQSKCPAESVDSSGKTALHYAAAQGCLQAVQILCEHKSPINLKDLDGNIPLLLAVQNGHSEICHFLLDHGADVNSRNKSGRTALMLACEIGSSNAVEALIKKGADLNLVDSLGYNALHYSKLSENAGIQSLLLSKISQDADLKTPTKPKQHDQVSKISSERSGTPKKRKAPPPPISPTQLSDVSSPRSITSTPLSGKESVFFAEPPFKAEISSIRENKDRLSDSTTGADSLLDISSEADQQDLLSLLQAKVASLTLHNKELQDKLQAKSPKEAEADLSFDSYHSTQTDLGPSLGKPGETSPPDSKSSPSVLIHSLGKSTTDNDVRIQQLQEILQDLQKRLESSEAERKQLQVELQSRRAELVCLNNTEISENSSDLSQKLKETQSKYEEAMKEVLSVQKQMKLGLVSPESMDNYSHFHELRVTEEEINVLKQDLQNALEESERNKEKVRELEEKLVEREKGTVIKPPVEEYEEMKSSYCSVIENMNKEKAFLFEKYQEAQEEIMKLKDTLKSQMTQEASDEAEDMKEAMNRMIDELNKQVSELSQLYKEAQAELEDYRKRKSLEDVTAEYIHKAEHEKLMQLTNVSRAKAEDALSEMKSQYSKVLNELTQLKQLVDAQKENSVSITEHLQVITTLRTAAKEMEEKISNLKEHLASKEVEVAKLEKQLLEEKAAMTDAMVPRSSYEKLQSSLESEVSVLASKLKESVKEKEKVHSEVVQIRSEVSQVKREKENIQTLLKSKEQEVNELLQKFQQAQEELAEMKRYAESSSKLEEDKDKKINEMSKEVTKLKEALNSLSQLSYSTSSSKRQSQQLEALQQQVKQLQNQLAECKKQHQEVISVYRMHLLYAVQGQMDEDVQKVLKQILTMCKNQSQKK
Q: Which binding [3] does the source give for B1 here?
A: binds

B2: PDZK8, two-hybrid fusion (protein, UniProt Q8NEN9 1-1154)
chain: MGLLLMILASAVLGSFLTLLAQFFLLYRRQPEPPADEAARAGEGFRYIKPVPGLLLREYLYGGGRDEEPSGAAPEGGATPTAAPETPAPPTRETCYFLNATILFLFRELRDTALTRRWVTKKIKVEFEELLQTKTAGRLLEGLSLRDVFLGETVPFIKTIRLVRPVVPSATGEPDGPEGEALPAACPEELAFEAEVEYNGGFHLAIDVDLVFGKSAYLFVKLSRVVGRLRLVFTRVPFTHWFFSFVEDPLIDFEVRSQFEGRPMPQLTSIIVNQLKKIIKRKHTLPNYKIRFKPFFPYQTLQGFEEDEEHIHIQQWALTEGRLKVTLLECSRLLIFGSYDREANVHCTLELSSSVWEEKQRSSIKTVELIKGNLQSVGLTLRLVQSTDGYAGHVIIETVAPNSPAAIADLQRGDRLIAIGGVKITSTLQVLKLIKQAGDRVLVYYERPVGQSNQGAVLQDNFGQLEENFLSSSCQSGYEEEAAGLTVDTESRELDSEFEDLASDVRAQNEFKDEAQSLSHSPKRVPTTLSIKPLGAISPVLNRKLAVGSHPLPPKIQSKDGNKPPPLKTSEITDPAQVSKPTQGSAFKPPVPPRPQAKVPLPSADAPNQAEPDVLVEKPEKVVPPPLVDKSAEKQAKNVDAIDDAAAPKQFLAKQEVAKDVTSETSCPTKDSSDDRQTWESSEILYRNKLGKWTRTRASCLFDIEACHRYLNIALWCRDPFKLGGLICLGHVSLKLEDVALGCLATSNTEYLSKLRLEAPSPKAIVTRTALRNLSMQKGFNDKFCYGDITIHFKYLKEGESDHHVVTNVEKEKEPHLVEEVSVLPKEEQFVGQMGLTENKHSFQDTQFQNPTWCDYCKKKVWTKAASQCMFCAYVCHKKCQEKCLAETSVCGATDRRIDRTLKNLRLEGQETLLGLPPRVDAEASKSVNKTTGLTRHIINTSSRLLNLRQVSKTRLSEPGTDLVEPSPKHTPNTSDNEGSDTEVCGPNSPSKRGNSTGIKLVRKEGGLDDSVFIAVKEIGRDLYRGLPTEERIQKLEFMLDKLQNEIDQELEHNNSLVREEKETTDTRKKSLLSAALAKSGERLQALTLLMIHYRAGIEDIETLESLSLDQHSKKISKYTDDTEEDLDNEISQLIDSQPFSSISDDLFGPSESV
Q: For B2, which binding [3] is on record?
A: binds

B3: FEZ1, two-hybrid fusion (protein, UniProt Q99689 1-392)
chain: MEAPLVSLDEEFEDLRPSCSEDPEEKPQCFYGSSPHHLEDPSLSELENFSSEIISFKSMEDLVNEFDEKLNVCFRNYNAKTENLAPVKNQLQIQEEEETLQDEEVWDALTDNYIPSLSEDWRDPNIEALNGNCSDTEIHEKEEEEFNEKSENDSGINEEPLLTADQVIEEIEEMMQNSPDPEEEEEVLEEEDGGETSSQADSVLLQEMQALTQTFNNNWSYEGLRHMSGSELTELLDQVEGAIRDFSEELVQQLARRDELEFEKEVKNSFITVLIEVQNKQKEQRELMKKRRKEKGLSLQSSRIEKGNQMPLKRFSMEGISNILQSGIRQTFGSSGTDKQYLNTVIPYEKKASPPSVEDLQMLTNILFAMKEDNEKVPTLLTDYILKVLCPT
Q: B3 was tested. Which binding [3] did it give?
A: binds

B4: SLC25A11, tagged construct (protein, UniProt Q02978 1-314)
chain: MAATASAGAGGIDGKPRTSPKSVKFLFGGLAGMGATVFVQPLDLVKNRMQLSGEGAKTREYKTSFHALTSILKAEGLRGIYTGLSAGLLRQATYTTTRLGIYTVLFERLTGADGTPPGFLLKAVIGMTAGATGAFVGTPAEVALIRMTADGRLPADQRRGYKNVFNALIRITREEGVLTLWRGCIPTMARAVVVNAAQLASYSQSKQFLLDSGYFSDNILCHFCASMISGLVTTAASMPVDIAKTRIQNMRMIDGKPEYKNGLDVLFKVVRYEGFFSLWKGFTPYYARLGPHTVLTFIFLEQMNKAYKRLFLSG
Q: With B4 as the molecule, how does the binding (tagged HAX1 (whole HAX1) [4]) read?
A: binds

B5: SLC25A13, tagged construct (protein, UniProt Q9UJS0 1-675)
chain: MAAAKVALTKRADPAELRTIFLKYASIEKNGEFFMSPNDFVTRYLNIFGESQPNPKTVELLSGVVDQTKDGLISFQEFVAFESVLCAPDALFMVAFQLFDKAGKGEVTFEDVKQVFGQTTIHQHIPFNWDSEFVQLHFGKERKRHLTYAEFTQFLLEIQLEHAKQAFVQRDNARTGRVTAIDFRDIMVTIRPHVLTPFVEECLVAAAGGTTSHQVSFSYFNGFNSLLNNMELIRKIYSTLAGTRKDVEVTKEEFVLAAQKFGQVTPMEVDILFQLADLYEPRGRMTLADIERIAPLEEGTLPFNLAEAQRQKASGDSARPVLLQVAESAYRFGLGSVAGAVGATAVYPIDLVKTRMQNQRSTGSFVGELMYKNSFDCFKKVLRYEGFFGLYRGLLPQLLGVAPEKAIKLTVNDFVRDKFMHKDGSVPLAAEILAGGCAGGSQVIFTNPLEIVKIRLQVAGEITTGPRVSALSVVRDLGFFGIYKGAKACFLRDIPFSAIYFPCYAHVKASFANEDGQVSPGSLLLAGAIAGMPAASLVTPADVIKTRLQVAARAGQTTYSGVIDCFRKILREEGPKALWKGAGARVFRSSPQFGVTLLTYELLQRWFYIDFGGVKPMGSEPVPKSRINLPAPNPDHVGGYKLAVATFAGIENKFGLYLPLFKPSVSTSKAIGGGP
Q: For B5, which binding (tagged HAX1 (whole HAX1) [4]) is on record?
A: binds

B6: Aurora A kinase (AURKA), expression construct (protein, UniProt O14965 1-403)
chain: MDRSKENCISGPVKATAPVGGPKRVLVTQQFPCQNPLPVNSGQAQRVLCPSNSSQRIPLQAQKLVSSHKPVQNQKQKQLQATSVPHPVSRPLNNTQKSKQPLPSAPENNPEEELASKQKNEESKKRQWALEDFEIGRPLGKGKFGNVYLAREKQSKFILALKVLFKAQLEKAGVEHQLRREVEIQSHLRHPNILRLYGYFHDATRVYLILEYAPLGTVYRELQKLSKFDEQRTATYITELANALSYCHSKRVIHRDIKPENLLLGSAGELKIADFGWSVHAPSSRRTTLCGTLDYLPPEMIEGRMHDEKVDLWSLGVLCYEFLVGKPPFEANTYQETYKRISRVEFTFPDFVTEGARDLISRLLKHNPSQRPMLREVLEHPWITANSSKPSNCQNKESASKQS
Q: With B6 as the molecule, how does the binding (tagged HAX1 (whole HAX1) [4]) read?
A: binds

B7: crystallin, α B (CRYAB), tagged construct (protein, UniProt P02511 1-175)
chain: MDIAIHHPWIRRPFFPFHSPSRLFDQFFGEHLLESDLFPTSTSLSPFYLRPPSFLRAPSWFDTGLSEMRLEKDRFSVNLDVKHFSPEELKVKVLGDVIEVHGKHEERQDEHGFISREFHRKYRIPADVDPLTITSSLSSDGVLTVNGPRKQVSGPERTIPITREEKPAVTAAPKK
Q: How did the binding (tagged HAX1 (whole HAX1) [4]) turn out when B7 was run?
A: no binding

— publication PMC7670567
